Results are given in words; binding and its absence hold for the method and conditions named. In cells and extracts the contact can be indirect. Binding calls can cover weak binding; strength is not graded here. Tags and fused reporters may be left off the sequences shown.
Molecular target: T1, GST-FIP3 (UniProt O75154)
T1 sequence: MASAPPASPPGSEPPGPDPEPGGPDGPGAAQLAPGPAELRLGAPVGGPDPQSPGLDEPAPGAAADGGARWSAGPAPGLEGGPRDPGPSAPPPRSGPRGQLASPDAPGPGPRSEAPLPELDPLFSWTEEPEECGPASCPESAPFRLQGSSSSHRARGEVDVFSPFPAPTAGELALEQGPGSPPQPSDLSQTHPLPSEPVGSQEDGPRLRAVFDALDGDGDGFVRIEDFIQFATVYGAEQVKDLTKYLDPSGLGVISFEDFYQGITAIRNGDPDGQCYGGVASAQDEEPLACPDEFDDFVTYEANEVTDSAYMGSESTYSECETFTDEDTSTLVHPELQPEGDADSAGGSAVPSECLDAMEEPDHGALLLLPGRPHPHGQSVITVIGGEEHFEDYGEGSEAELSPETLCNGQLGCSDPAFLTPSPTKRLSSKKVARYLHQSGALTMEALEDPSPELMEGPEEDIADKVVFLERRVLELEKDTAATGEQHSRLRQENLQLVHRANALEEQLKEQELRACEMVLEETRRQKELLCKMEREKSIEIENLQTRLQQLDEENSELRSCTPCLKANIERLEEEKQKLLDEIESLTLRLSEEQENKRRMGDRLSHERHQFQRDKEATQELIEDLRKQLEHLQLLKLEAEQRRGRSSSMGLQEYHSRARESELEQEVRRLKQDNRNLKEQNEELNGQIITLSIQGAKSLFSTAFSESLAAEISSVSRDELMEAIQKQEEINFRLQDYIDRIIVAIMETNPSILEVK
Experiment: pull-down; GST-FIP3 pull-down of active Rab11 from lysates of keratinocytes transfected with GFP, GFP-Rac^Q61L or GFP-Rac^P29S (50 mM Tris HCl pH 7.4, 100 mM NaCl, 1% NP-40, 10% glycerol, 10 mM MgCl2); only the target purified

In the case of Rab11 (endogenous, keratinocytes), the binding was “binds”.

Reference: article PMC8091128
